Compound in the assay: Nc1nc2c(ncn2[C@@H]2O[C@H](COP(=O)(O)OP(=O)(O)OP(=O)(O)O)[C@@H](O)[C@H]2O)c(=O)[nH]1 [guanosine triphosphate]
Kind of assay: NP40-soluble protein abundance relative to vehicle (solubility fold change) (ratio); higher = more soluble protein in presence of GTP. A digest of the protocol:
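Across three independent experiments, values are fold changes against the detergent-processed vehicle for each replicate, based on vsn-normalised intensities. The samples were Jurkat crude lysate treated with eight concentrations (0.1 to 10 mM) for 10 min at room temperature and then 3 min at 37 °C. Lysate was solubilised with 0.8% NP40 and benzonase, ultracentrifuged, and the supernatant analysed by TMT-labelled LC-MS/MS.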

Sequences of proteins named here, by UniProt entry; tags and fusion partners are left off. A change or cut given only in a name is not applied to a line headed by its entry.
UniProt Q86SZ2: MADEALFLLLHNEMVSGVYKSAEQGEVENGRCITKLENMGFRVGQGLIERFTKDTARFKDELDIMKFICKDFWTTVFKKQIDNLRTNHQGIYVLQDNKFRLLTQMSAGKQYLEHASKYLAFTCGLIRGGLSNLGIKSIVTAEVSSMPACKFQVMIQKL
UniProt Q86V59: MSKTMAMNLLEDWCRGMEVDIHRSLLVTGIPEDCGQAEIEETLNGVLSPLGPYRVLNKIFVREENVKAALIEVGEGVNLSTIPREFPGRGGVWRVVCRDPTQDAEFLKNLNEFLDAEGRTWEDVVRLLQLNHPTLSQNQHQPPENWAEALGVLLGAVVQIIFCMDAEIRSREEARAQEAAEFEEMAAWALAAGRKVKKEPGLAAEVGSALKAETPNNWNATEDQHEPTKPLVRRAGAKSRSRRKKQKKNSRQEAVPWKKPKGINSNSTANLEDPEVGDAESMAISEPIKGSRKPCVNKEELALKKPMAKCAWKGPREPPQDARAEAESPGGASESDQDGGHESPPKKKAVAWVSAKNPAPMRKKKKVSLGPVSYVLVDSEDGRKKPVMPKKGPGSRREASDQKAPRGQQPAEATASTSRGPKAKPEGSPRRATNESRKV
UniProt Q7Z4H3: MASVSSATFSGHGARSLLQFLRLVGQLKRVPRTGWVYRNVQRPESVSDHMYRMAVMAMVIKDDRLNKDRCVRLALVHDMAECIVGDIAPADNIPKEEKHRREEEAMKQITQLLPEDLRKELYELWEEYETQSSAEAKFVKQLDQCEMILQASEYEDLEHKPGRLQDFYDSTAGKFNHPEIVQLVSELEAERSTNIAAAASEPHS
UniProt Q7Z434: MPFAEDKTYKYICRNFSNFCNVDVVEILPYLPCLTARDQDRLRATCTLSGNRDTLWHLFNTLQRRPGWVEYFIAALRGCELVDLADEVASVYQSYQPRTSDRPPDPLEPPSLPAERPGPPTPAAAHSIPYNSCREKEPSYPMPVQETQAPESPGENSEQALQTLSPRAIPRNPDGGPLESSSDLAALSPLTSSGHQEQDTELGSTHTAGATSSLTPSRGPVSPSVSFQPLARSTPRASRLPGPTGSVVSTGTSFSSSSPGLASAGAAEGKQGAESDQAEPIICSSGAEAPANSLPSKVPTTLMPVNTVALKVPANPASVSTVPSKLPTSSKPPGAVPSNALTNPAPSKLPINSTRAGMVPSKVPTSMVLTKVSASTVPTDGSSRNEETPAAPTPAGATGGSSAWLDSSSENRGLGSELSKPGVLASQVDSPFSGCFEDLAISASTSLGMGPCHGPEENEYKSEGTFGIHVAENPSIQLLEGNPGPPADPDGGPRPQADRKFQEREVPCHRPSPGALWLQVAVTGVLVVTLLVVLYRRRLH
UniProt Q7Z3U7: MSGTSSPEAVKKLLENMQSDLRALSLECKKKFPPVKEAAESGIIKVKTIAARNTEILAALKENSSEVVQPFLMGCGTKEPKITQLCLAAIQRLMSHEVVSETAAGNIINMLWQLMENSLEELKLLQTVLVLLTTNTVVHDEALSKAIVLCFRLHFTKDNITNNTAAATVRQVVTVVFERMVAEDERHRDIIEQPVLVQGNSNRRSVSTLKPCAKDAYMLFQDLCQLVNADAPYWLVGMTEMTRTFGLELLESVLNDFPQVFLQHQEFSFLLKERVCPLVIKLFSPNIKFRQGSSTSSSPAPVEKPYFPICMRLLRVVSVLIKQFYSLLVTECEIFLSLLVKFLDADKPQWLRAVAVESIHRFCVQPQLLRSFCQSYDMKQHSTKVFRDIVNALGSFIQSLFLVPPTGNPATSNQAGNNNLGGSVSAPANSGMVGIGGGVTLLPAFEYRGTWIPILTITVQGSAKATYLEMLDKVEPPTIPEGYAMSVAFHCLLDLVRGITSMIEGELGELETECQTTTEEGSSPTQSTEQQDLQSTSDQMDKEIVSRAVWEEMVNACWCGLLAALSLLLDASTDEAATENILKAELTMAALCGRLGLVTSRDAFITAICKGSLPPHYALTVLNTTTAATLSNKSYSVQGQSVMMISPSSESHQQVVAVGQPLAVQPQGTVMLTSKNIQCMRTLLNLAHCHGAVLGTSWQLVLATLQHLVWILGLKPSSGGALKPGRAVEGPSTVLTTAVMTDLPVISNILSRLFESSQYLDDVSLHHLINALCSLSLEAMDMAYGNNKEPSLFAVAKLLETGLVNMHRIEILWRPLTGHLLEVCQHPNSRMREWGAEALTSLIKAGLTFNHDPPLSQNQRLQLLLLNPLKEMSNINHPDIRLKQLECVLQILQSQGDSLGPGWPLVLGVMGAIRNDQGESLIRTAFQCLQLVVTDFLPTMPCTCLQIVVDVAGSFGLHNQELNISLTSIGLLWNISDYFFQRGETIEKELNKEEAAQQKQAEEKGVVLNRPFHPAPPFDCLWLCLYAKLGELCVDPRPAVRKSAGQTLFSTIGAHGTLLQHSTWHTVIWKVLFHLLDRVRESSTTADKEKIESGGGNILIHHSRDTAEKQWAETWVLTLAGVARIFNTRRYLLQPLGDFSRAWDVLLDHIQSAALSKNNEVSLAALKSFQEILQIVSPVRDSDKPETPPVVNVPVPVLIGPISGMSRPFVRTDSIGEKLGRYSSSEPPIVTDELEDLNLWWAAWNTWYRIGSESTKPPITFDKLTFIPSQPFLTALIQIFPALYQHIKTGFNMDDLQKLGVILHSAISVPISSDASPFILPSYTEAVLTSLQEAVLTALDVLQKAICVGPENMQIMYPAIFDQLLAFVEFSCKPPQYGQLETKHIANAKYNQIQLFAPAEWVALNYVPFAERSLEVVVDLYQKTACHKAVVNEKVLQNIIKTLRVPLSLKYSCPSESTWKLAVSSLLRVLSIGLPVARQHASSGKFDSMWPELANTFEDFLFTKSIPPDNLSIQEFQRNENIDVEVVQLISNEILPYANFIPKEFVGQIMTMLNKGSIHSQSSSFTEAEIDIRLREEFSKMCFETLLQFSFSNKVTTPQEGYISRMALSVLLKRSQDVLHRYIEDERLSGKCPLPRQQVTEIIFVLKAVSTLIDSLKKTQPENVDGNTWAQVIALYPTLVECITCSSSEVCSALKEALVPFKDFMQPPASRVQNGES
UniProt Q6SPF0: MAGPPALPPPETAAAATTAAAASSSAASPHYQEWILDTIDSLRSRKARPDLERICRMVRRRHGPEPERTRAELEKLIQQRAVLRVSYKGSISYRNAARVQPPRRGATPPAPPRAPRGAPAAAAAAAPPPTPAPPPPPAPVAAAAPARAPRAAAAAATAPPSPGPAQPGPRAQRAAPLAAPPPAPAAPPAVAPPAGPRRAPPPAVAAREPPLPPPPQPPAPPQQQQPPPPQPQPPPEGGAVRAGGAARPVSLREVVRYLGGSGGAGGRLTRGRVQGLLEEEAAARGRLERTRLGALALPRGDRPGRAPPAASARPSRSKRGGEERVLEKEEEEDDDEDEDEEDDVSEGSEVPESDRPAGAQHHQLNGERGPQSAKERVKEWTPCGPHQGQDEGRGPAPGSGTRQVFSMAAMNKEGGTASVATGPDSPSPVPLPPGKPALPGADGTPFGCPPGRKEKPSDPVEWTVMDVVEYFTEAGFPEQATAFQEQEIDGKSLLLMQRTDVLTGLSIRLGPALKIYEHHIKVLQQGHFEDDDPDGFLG
UniProt Q6P6C2: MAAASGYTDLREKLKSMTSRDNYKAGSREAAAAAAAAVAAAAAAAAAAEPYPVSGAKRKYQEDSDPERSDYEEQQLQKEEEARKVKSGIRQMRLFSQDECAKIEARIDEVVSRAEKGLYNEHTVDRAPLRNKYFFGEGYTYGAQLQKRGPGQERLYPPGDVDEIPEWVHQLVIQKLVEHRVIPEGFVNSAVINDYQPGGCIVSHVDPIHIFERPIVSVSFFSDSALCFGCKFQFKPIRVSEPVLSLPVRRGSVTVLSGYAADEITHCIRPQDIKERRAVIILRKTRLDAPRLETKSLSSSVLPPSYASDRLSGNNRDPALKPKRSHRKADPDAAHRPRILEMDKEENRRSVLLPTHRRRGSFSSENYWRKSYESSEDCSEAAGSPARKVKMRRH
UniProt Q86SX6: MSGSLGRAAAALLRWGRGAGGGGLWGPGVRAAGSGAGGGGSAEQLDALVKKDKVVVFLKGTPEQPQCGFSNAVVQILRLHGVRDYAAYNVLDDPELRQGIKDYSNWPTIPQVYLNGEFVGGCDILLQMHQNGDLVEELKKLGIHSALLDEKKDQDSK
UniProt Q6JBY9, whole entry: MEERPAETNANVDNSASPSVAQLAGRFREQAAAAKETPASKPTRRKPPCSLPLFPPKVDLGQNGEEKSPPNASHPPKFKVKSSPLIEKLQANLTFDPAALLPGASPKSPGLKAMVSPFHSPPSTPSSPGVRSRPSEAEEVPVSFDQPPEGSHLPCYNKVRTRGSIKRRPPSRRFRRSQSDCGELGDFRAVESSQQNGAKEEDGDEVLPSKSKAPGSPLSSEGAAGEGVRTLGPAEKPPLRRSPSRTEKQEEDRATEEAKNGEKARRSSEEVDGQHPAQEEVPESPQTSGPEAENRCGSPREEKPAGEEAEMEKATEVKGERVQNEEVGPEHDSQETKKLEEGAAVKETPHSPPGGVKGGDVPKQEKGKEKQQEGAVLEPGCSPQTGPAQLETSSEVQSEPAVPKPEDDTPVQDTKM
UniProt Q5VVQ6: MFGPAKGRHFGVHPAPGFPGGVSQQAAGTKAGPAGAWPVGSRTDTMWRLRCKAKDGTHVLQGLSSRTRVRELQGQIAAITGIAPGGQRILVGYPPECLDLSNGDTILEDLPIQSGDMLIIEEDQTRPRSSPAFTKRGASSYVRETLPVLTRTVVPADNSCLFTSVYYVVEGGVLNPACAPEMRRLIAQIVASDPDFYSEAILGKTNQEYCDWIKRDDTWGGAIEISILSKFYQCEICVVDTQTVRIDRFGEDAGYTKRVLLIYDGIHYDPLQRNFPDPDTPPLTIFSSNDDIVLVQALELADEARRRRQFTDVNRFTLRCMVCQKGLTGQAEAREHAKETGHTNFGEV
UniProt Q75N03: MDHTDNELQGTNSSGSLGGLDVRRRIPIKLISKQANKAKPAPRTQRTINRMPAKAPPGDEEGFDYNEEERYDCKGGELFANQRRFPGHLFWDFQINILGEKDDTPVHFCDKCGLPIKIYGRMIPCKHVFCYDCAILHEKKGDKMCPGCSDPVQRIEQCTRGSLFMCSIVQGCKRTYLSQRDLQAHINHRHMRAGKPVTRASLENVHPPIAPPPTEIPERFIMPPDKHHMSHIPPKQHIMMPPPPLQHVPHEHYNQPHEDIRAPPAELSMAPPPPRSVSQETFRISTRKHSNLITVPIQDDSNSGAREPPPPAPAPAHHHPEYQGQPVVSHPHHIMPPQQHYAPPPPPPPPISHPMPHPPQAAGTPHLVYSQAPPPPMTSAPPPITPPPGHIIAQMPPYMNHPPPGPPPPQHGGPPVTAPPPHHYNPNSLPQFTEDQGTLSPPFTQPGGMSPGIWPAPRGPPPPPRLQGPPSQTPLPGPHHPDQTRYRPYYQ
UniProt Q6PHR2: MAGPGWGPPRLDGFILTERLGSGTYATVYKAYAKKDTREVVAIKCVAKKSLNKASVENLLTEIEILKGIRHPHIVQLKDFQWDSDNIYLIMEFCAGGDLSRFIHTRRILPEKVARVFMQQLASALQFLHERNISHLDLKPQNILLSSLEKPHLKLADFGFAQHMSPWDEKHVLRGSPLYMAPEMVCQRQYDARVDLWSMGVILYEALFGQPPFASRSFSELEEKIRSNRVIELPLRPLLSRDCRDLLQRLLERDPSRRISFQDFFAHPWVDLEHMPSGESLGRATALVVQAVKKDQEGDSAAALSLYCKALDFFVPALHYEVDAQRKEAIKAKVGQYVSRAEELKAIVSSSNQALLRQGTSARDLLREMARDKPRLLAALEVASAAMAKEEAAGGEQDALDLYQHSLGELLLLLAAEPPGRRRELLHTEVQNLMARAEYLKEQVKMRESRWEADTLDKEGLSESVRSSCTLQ
UniProt Q7L0Y3: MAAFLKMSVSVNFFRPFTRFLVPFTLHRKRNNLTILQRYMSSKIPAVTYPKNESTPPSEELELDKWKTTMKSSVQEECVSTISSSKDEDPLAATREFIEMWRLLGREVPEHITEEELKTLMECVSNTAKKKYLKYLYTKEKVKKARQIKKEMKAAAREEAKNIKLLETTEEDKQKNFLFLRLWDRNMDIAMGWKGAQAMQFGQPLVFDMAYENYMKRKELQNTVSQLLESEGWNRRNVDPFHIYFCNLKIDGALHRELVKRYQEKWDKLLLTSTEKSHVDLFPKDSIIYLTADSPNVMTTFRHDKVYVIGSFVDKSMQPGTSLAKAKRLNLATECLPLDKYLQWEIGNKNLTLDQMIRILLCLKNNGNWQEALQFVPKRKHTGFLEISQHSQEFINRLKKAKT
UniProt Q7L266: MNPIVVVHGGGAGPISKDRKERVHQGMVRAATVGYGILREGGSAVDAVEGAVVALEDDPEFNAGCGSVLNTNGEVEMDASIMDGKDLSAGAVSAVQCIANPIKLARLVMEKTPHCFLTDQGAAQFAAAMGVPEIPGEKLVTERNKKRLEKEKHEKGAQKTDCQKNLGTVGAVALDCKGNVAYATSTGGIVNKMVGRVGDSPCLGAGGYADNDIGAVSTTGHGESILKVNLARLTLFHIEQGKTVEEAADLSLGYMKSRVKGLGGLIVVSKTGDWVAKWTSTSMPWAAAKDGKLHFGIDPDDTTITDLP

± gives the standard deviation of the averaged measurements. This is one part of the list.

17 targets from the supplement of paper PMC6411743 can be followed below.

As for TRAPPC6B (UniProt Q86SZ2), the NP40-soluble protein abundance by setting is: (concentration: 0.1mM) 1.06 ± 0.015; (concentration: 0.5mM) 0.988 ± 0.077; (concentration: 1mM) 0.954 ± 0.058; (concentration: 2mM) 0.997 ± 0.092; (concentration: 4mM) 0.999 ± 0.049; (concentration: 6mM) 0.963 ± 0.088. The NP40-soluble protein abundance is 0.885 ± 0.017 (concentration: 8mM) and 0.958 ± 0.065 (concentration: 10mM).

Consider UniProt Q86V59 and related entries, for which the NP40-soluble protein abundance (concentration: 0.1mM) worked out at 1.04 ± 0.046; the NP40-soluble protein abundance (concentration: 0.5mM) is 0.975 ± 0.041; the NP40-soluble protein abundance (concentration: 1mM) came to 1.05 ± 0.059; the NP40-soluble protein abundance (concentration: 2mM) turned out to be 1.09 ± 0.051; the NP40-soluble protein abundance (concentration: 4mM) was determined as 1.12 ± 0.14; the NP40-soluble protein abundance (concentration: 6mM) was determined as 1.1 ± 0.15. Moreover, the NP40-soluble protein abundance worked out at 1.14 ± 0.05 (concentration: 8mM) and 1.2 ± 0.19 (concentration: 10mM).

As for HDDC2 (UniProt Q7Z4H3), the NP40-soluble protein abundance by setting is: (concentration: 0.1mM) 0.793 ± 0.11; (concentration: 0.5mM) 0.745 ± 0.12; (concentration: 1mM) 1.05 ± 0.18; (concentration: 2mM) 1.01 ± 0.091; (concentration: 4mM) 0.978 ± 0.12; (concentration: 6mM) 0.99 ± 0.13. For the same target, the NP40-soluble protein abundance was 0.88 ± 0.25 (concentration: 8mM) and 1.08 ± 0.2 (concentration: 10mM).

Regarding UniProt Q7Z7A1 and related entries, the NP40-soluble protein abundance (concentration: 0.1mM) is 0.971 ± 0.11; the NP40-soluble protein abundance (concentration: 0.5mM) was 0.957 ± 0.12; the NP40-soluble protein abundance (concentration: 1mM) stood at 0.934 ± 0.069; the NP40-soluble protein abundance (concentration: 2mM) was determined as 0.898 ± 0.057; the NP40-soluble protein abundance (concentration: 4mM) is 0.956 ± 0.14; the NP40-soluble protein abundance (concentration: 6mM) amounted to 0.937 ± 0.096. Besides, the NP40-soluble protein abundance runs as follows: (concentration: 8mM) 0.989 ± 0.11; (concentration: 10mM) 0.912 ± 0.081.

With UniProt Q7Z434 and related entries, the NP40-soluble protein abundance (concentration: 0.1mM) was 0.916 ± 0.047; the NP40-soluble protein abundance (concentration: 0.5mM) amounted to 0.936 ± 0.076; the NP40-soluble protein abundance (concentration: 1mM) amounted to 0.959 ± 0.058; the NP40-soluble protein abundance (concentration: 2mM) was 0.902 ± 0.093; the NP40-soluble protein abundance (concentration: 4mM) came to 0.909 ± 0.12; the NP40-soluble protein abundance (concentration: 6mM) came to 0.897 ± 0.1. In addition, the NP40-soluble protein abundance by setting is: (concentration: 8mM) 0.914 ± 0.082; (concentration: 10mM) 0.905 ± 0.12.

Turning to UniProt Q7Z3U7 and related entries, the NP40-soluble protein abundance is 1.17 ± 0.26 (concentration: 0.1mM); 1.2 ± 0.29 (concentration: 0.5mM); 1.17 ± 0.19 (concentration: 1mM); 1.18 ± 0.22 (concentration: 2mM); 1.13 ± 0.28 (concentration: 4mM); 1.12 ± 0.25 (concentration: 6mM). In addition, the NP40-soluble protein abundance was 1.21 ± 0.17 (concentration: 8mM) and 1.12 ± 0.18 (concentration: 10mM).

Consider SAMD1 (UniProt Q6SPF0), for which the NP40-soluble protein abundance (concentration: 0.1mM) stood at 0.917 ± 0.1; the NP40-soluble protein abundance (concentration: 0.5mM) came to 0.899 ± 0.18; the NP40-soluble protein abundance (concentration: 1mM) is 1.09 ± 0.12; the NP40-soluble protein abundance (concentration: 2mM) was determined as 1.02 ± 0.18; the NP40-soluble protein abundance (concentration: 4mM) worked out at 1.01 ± 0.098; the NP40-soluble protein abundance (concentration: 6mM) is 1.06 ± 0.18. In addition, the NP40-soluble protein abundance (concentration: 8mM) was determined as 1.09 ± 0.069 and the NP40-soluble protein abundance (concentration: 10mM) amounted to 1.11 ± 0.026.

Regarding ALKBH5 (UniProt Q6P6C2), the NP40-soluble protein abundance (concentration: 0.1mM) amounted to 0.979 ± 0.028; the NP40-soluble protein abundance (concentration: 0.5mM) was 1.19 ± 0.069; the NP40-soluble protein abundance (concentration: 1mM) was determined as 1.2 ± 0.043; the NP40-soluble protein abundance (concentration: 2mM) worked out at 1.3 ± 0.13; the NP40-soluble protein abundance (concentration: 4mM) came to 1.26 ± 0.078; the NP40-soluble protein abundance (concentration: 6mM) was found to be 1.37 ± 0.11. Further, the NP40-soluble protein abundance by setting is: (concentration: 8mM) 1.39 ± 0.054; (concentration: 10mM) 1.47 ± 0.081.

As to GLRX5 (UniProt Q86SX6), the NP40-soluble protein abundance by setting is: (concentration: 0.1mM) 0.933 ± 0.089; (concentration: 0.5mM) 0.877 ± 0.14; (concentration: 1mM) 1.01 ± 0.14; (concentration: 2mM) 1.07 ± 0.21; (concentration: 4mM) 1.11 ± 0.32; (concentration: 6mM) 0.973 ± 0.19. Also, the NP40-soluble protein abundance (concentration: 8mM) turned out to be 1.01 ± 0.19 and the NP40-soluble protein abundance (concentration: 10mM) came out at 1.16 ± 0.23.

Turning to RCSD1 (UniProt Q6JBY9), the NP40-soluble protein abundance reads like this: (concentration: 0.1mM) 1.05 ± 0.051; (concentration: 0.5mM) 1.01 ± 0.062; (concentration: 1mM) 1.01 ± 0.11; (concentration: 2mM) 0.857 ± 0.11; (concentration: 4mM) 0.854 ± 0.12; (concentration: 6mM) 0.828 ± 0.11. For the same target, the NP40-soluble protein abundance runs as follows: (concentration: 8mM) 0.954 ± 0.1; (concentration: 10mM) 0.894 ± 0.12.

Turning to UniProt Q5VVQ6 and related entries, the NP40-soluble protein abundance worked out at 1.1 ± 0.037 (concentration: 0.1mM); 1.0384 ± 0.00061 (concentration: 0.5mM); 1.03 ± 0.1 (concentration: 1mM); 1.022 ± 0.004 (concentration: 2mM); 1.11 ± 0.14 (concentration: 4mM); 1.06 ± 0.13 (concentration: 6mM). Further, the NP40-soluble protein abundance runs as follows: (concentration: 8mM) 1.02 ± 0.05; (concentration: 10mM) 1.07 ± 0.12.

Regarding UniProt Q75N03 and related entries, the NP40-soluble protein abundance came to 0.988 ± 0.15 (concentration: 0.1mM); 1.03 ± 0.11 (concentration: 0.5mM); 1.07 ± 0.057 (concentration: 1mM); 1.09 ± 0.11 (concentration: 2mM); 0.983 ± 0.097 (concentration: 4mM); 1.05 ± 0.097 (concentration: 6mM). For the same target, the NP40-soluble protein abundance runs as follows: (concentration: 8mM) 0.986 ± 0.075; (concentration: 10mM) 1.09 ± 0.11.

For the target UniProt Q5VT52 and related entries, the NP40-soluble protein abundance is 0.968 ± 0.078 (concentration: 0.1mM); 1 ± 0.071 (concentration: 0.5mM); 1.04 ± 0.069 (concentration: 1mM); 1.03 ± 0.084 (concentration: 2mM); 1.03 ± 0.092 (concentration: 4mM); 1.03 ± 0.057 (concentration: 6mM). Moreover, the NP40-soluble protein abundance came out at 1.06 ± 0.07 (concentration: 8mM) and 1.07 ± 0.076 (concentration: 10mM).

Take UniProt Q6PHR2 and related entries: the NP40-soluble protein abundance (concentration: 0.1mM) is 1.12 ± 0.09; the NP40-soluble protein abundance (concentration: 0.5mM) stood at 1.13 ± 0.15; the NP40-soluble protein abundance (concentration: 1mM) is 1.1 ± 0.078; the NP40-soluble protein abundance (concentration: 2mM) came to 1.09 ± 0.038; the NP40-soluble protein abundance (concentration: 4mM) came to 1.08 ± 0.078; the NP40-soluble protein abundance (concentration: 6mM) was found to be 0.974 ± 0.093. The NP40-soluble protein abundance (concentration: 8mM) came to 1.03 ± 0.038 and the NP40-soluble protein abundance (concentration: 10mM) worked out at 0.952 ± 0.067.

MRPL14 (UniProt Q6P1L8): the NP40-soluble protein abundance came to 0.994 ± 0.31 (concentration: 0.1mM); 1.04 ± 0.29 (concentration: 0.5mM); 1.36 ± 0.3 (concentration: 1mM); 1.32 ± 0.22 (concentration: 2mM); 1.43 ± 0.3 (concentration: 4mM); 1.35 ± 0.36 (concentration: 6mM). Moreover, the NP40-soluble protein abundance stood at 1.29 ± 0.36 (concentration: 8mM) and 1.25 ± 0.29 (concentration: 10mM).

For UniProt Q7L0Y3, the NP40-soluble protein abundance by setting is: (concentration: 0.1mM) 1.04 ± 0.02; (concentration: 0.5mM) 1.01 ± 0.02; (concentration: 1mM) 0.985 ± 0.02; (concentration: 2mM) 1.02 ± 0.045; (concentration: 4mM) 1.06 ± 0.041; (concentration: 6mM) 1.066 ± 0.00052. Moreover, the NP40-soluble protein abundance by setting is: (concentration: 8mM) 1.06 ± 0.05; (concentration: 10mM) 1.05 ± 0.048.

With UniProt Q7L266 and related entries, the NP40-soluble protein abundance runs as follows: (concentration: 0.1mM) 0.951 ± 0.095; (concentration: 0.5mM) 0.894 ± 0.071; (concentration: 1mM) 0.933 ± 0.092; (concentration: 2mM) 0.921 ± 0.13; (concentration: 4mM) 0.935 ± 0.12; (concentration: 6mM) 0.904 ± 0.11. Further, the NP40-soluble protein abundance runs as follows: (concentration: 8mM) 0.908 ± 0.1; (concentration: 10mM) 0.948 ± 0.14.
